Data source: PubChem BioAssay AID493246 (Drosophila RNAi Screening Center, 2011)

- Screen: 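Genome-wide search for dsRNAs that reduce cell number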 (primary screen)
- Cells: Drosophila Kc and S2R+ cells
- Reagents: long dsRNA against Drosophila genes
- Measured: 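Cell number per well after knock-down, printed as raw plate values; calls were based on per-plate z-scores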
- Direction: Kc cell number and S2R+ cell number: higher = more cells remaining
- Rule for the call: 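Active when the per-plate z-score of cell number is 3 or more in the direction of fewer cells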
In all, the deposit lists about 21,000 reagents; shown is an unselected part of those that have a named target and a result. In the full data, 429 (2%) were called active. 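Values are raw and not normalised between plates; calls rest on per-plate z-scores that were not deposited.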 Names joined by + are all predicted targets of the reagent. The record does not give: the amount of reagent, the time to read-out.

predicted target | amplicon | Kc cell number, rep 1 | Kc cell number, rep 2 | S2R+ cell number, rep 1 | S2R+ cell number, rep 2 | call
DMAP1 | DRSC06044 | 1.04e6 | 1.12e6 | 8.96e5 | 1.01e6 | inactive
PolH | DRSC11800 | 1.67e6 | 1.73e6 | 1.20e6 | 1.24e6 | inactive
Grl36b | DRSC01627 | 1.64e6 | 1.72e6 | 1.02e6 | 1.26e6 | inactive
obst-F | DRSC10805 | 1.49e6 | 1.57e6 | 1.19e6 | 1.38e6 | inactive
CG6231 | DRSC15997 | 1.22e6 | 1.22e6 | 1.01e6 | 1.12e6 | inactive
Slu7 | DRSC14729 | 1.27e6 | 1.41e6 | 8.33e5 | 9.58e5 | inactive
mey | DRSC14468 | 5.25e5 | – | 7.66e5 | – | inactive
CG9609 | DRSC20199 | 1.57e6 | 1.65e6 | 1.08e6 | 1.26e6 | inactive
lin-28 | DRSC10261 | 1.72e6 | 1.70e6 | 1.26e6 | 1.28e6 | inactive
CG11983 | DRSC14458 | 1.73e6 | 1.73e6 | 1.35e6 | 1.51e6 | inactive
btz | DRSC14566 | 5.23e5 | – | 7.68e5 | – | inactive
CG14654 (retired record) | DRSC12240 | 1.65e6 | 1.72e6 | 1.21e6 | 1.38e6 | inactive
lbe | DRSC16985 | 1.45e6 | 1.45e6 | 1.04e6 | 1.16e6 | inactive
GstE1 | DRSC07437 | 1.63e6 | 1.70e6 | 1.29e6 | 1.46e6 | inactive
Vha36-1 | DRSC07098 | 1.34e6 | 1.37e6 | 1.06e6 | 1.14e6 | inactive
mRpL3 | DRSC20100 | 1.44e6 | 1.42e6 | 9.78e5 | 1.04e6 | inactive
CG3108 | DRSC18280 | 5.86e5 | – | 9.14e5 | – | inactive
CG17780 | DRSC15265 | 1.34e6 | 1.53e6 | 1.03e6 | 1.15e6 | inactive
hng1 | DRSC04555 | 1.45e6 | 1.52e6 | 1.17e6 | 1.24e6 | inactive
ste24c + CG30461 | DRSC05639 | 5.32e5 | – | 7.66e5 | – | inactive
ste24c + CG30461 | DRSC07316 | 1.53e6 | 1.57e6 | 1.21e6 | 1.34e6 | inactive
CG17508 | DRSC07771 | 1.41e6 | 1.22e6 | 9.95e5 | 1.30e6 | inactive
CARPB | DRSC18437 | 6.44e5 | – | 9.18e5 | – | inactive
CARPB | DRSC18438 | 1.65e6 | 1.55e6 | 1.10e6 | 1.14e6 | inactive
CG15082 | DRSC06513 | 1.71e6 | 1.73e6 | 1.18e6 | 1.41e6 | inactive
Andorra | DRSC19475 | 1.49e6 | 1.49e6 | 1.07e6 | 1.16e6 | inactive
CG10345 | DRSC14138 | 1.53e6 | 1.64e6 | 1.16e6 | 1.23e6 | inactive
CG31928 | DRSC00293 | 1.30e6 | 1.39e6 | 1.09e6 | 1.09e6 | inactive
Ephrin | DRSC17165 | 1.42e6 | 1.48e6 | 1.06e6 | 1.16e6 | inactive
His3:CG33818 + His3:CG33857 + His3:CG33806 + 20 more | DRSC21267 | 7.38e5 | 8.40e5 | 3.40e5 | 4.49e5 | active
Asap | DRSC06493 | 1.51e6 | 1.68e6 | 1.21e6 | 1.41e6 | inactive
Asap | DRSC06830 | 1.23e6 | 1.33e6 | 1.09e6 | 1.15e6 | inactive
ref(2)P | DRSC03601 | 1.72e6 | 1.87e6 | 1.42e6 | 4.25e5 | inactive
hay | DRSC11354 | 1.42e6 | 1.49e6 | 1.15e6 | 1.13e6 | inactive
CG3294 | DRSC00590 | 1.17e6 | 1.32e6 | 7.36e5 | 6.13e5 | inactive
Cpr97Eb | DRSC15123 | 1.39e6 | 1.45e6 | 1.02e6 | 1.03e6 | inactive
Wee1 | DRSC03635 | 1.58e6 | 1.49e6 | 1.27e6 | 1.42e6 | inactive
trsn | DRSC06078 | 1.73e6 | 1.70e6 | 1.39e6 | 1.55e6 | inactive
Tektin-C | DRSC09741 | 1.47e6 | 1.38e6 | 7.47e5 | 8.17e5 | inactive
bdl | DRSC00271 | 1.41e6 | 1.33e6 | 1.13e6 | 1.26e6 | inactive
Nrt | DRSC11237 | 1.59e6 | 1.56e6 | 1.17e6 | 1.26e6 | inactive
CG6441 | DRSC02957 | 1.72e6 | 1.77e6 | 1.26e6 | 1.45e6 | inactive
Ac13E | DRSC19325 | 1.66e6 | 1.68e6 | 1.21e6 | 1.25e6 | inactive
CG9702 | DRSC16540 | 1.53e6 | 1.49e6 | 9.73e5 | 1.12e6 | inactive
CG12992 | DRSC19512 | 1.49e6 | 1.47e6 | 1.06e6 | 1.13e6 | inactive
dpp | DRSC00118 | 1.63e6 | 1.66e6 | 1.06e6 | 1.27e6 | inactive
dpp | DRSC00121 | 1.51e6 | 1.50e6 | 1.02e6 | 1.17e6 | inactive
dpp | DRSC00813 | 1.49e6 | 1.52e6 | 9.97e5 | 1.17e6 | inactive
CG9083 | DRSC04625 | 1.42e6 | 1.44e6 | 1.06e6 | 1.11e6 | inactive
PLCXD | DRSC02427 | 1.42e6 | 1.45e6 | 1.03e6 | 1.12e6 | inactive
Atg18b | DRSC03108 | 1.32e6 | 1.49e6 | 1.06e6 | 1.11e6 | inactive
CG31323 | DRSC14901 | 1.59e6 | 1.74e6 | 1.07e6 | 1.21e6 | inactive
UQCR-Q | DRSC10886 | 1.31e6 | 1.40e6 | 1.16e6 | 1.28e6 | inactive
CG3527 | DRSC18307 | 1.40e6 | 1.44e6 | 9.46e5 | 1.05e6 | inactive
Rtc1 | DRSC20285 | 5.06e5 | – | 8.58e5 | – | inactive
CG7945 | DRSC10934 | 1.40e6 | 1.43e6 | 1.15e6 | 1.23e6 | inactive
Atg4a | DRSC00656 | 1.34e6 | 1.43e6 | 1.07e6 | 1.14e6 | inactive
mthl8 | DRSC08211 | 1.50e6 | 1.50e6 | 1.24e6 | 1.23e6 | inactive
mthl8 | DRSC08311 | 1.26e6 | 1.25e6 | 9.90e5 | 1.30e6 | inactive
CG3640 | DRSC04399 | 1.72e6 | 1.79e6 | 1.42e6 | 1.66e6 | inactive
CG7299 | DRSC03043 | 1.56e6 | 1.82e6 | 1.39e6 | 1.61e6 | inactive
CG17801 | DRSC15273 | 1.46e6 | 1.46e6 | 1.06e6 | 1.18e6 | inactive
POLDIP2 | DRSC12194 | 1.55e6 | 1.64e6 | 1.27e6 | 1.33e6 | inactive
Nmnat | DRSC14644 | 1.65e6 | 1.67e6 | 9.87e5 | 1.08e6 | inactive
CG14237 | DRSC14731 | 1.61e6 | 1.66e6 | 9.71e5 | 1.16e6 | inactive
CG17167 | DRSC20902 | 1.73e6 | 1.76e6 | 1.15e6 | 1.33e6 | inactive
CG17167 | DRSC20903 | 1.80e6 | 1.78e6 | 1.15e6 | 1.35e6 | inactive
achi | DRSC07276 | 1.46e6 | 1.50e6 | 1.23e6 | 1.39e6 | inactive
CG31760 | DRSC02590 | 1.49e6 | 1.56e6 | 1.18e6 | 1.35e6 | inactive
AcCoAS | DRSC11477 | 1.34e6 | 1.40e6 | 9.97e5 | 1.11e6 | inactive
AcCoAS | DRSC11603 | 1.57e6 | 1.62e6 | 1.18e6 | 1.28e6 | inactive
CG4377 | DRSC04467 | 1.45e6 | 1.49e6 | 1.09e6 | 1.16e6 | inactive
CG13216 | DRSC06338 | 1.74e6 | 1.65e6 | 1.40e6 | 1.48e6 | inactive
CG5112 | DRSC15718 | 5.22e5 | – | 6.90e5 | – | inactive
CG1409 | DRSC17910 | 1.53e6 | 1.41e6 | 1.10e6 | 1.23e6 | inactive
